Data reported in publication PMC9174887.
These are yes or no findings as the source states them, for the method shown. For some of these results: Binding seen in cells or lysates may run through a third protein. Some results given as binding are weak or reduced against the parent protein; the word gives no strength. Sequences can lack the tags named with a protein. One block for each molecule: values may come before it.

By UniProt entry, the sequences of proteins in these tests, tags left out.
UniProt Q9ULZ3: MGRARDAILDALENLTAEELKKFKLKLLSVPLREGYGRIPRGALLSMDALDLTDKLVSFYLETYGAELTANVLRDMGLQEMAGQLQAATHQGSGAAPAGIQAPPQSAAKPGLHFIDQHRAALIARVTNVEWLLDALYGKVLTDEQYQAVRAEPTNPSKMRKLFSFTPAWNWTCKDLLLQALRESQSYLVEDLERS

Experiments:
[1] = target: T1, HA-tagged VHH_(mASC) (JT-01-A09), expressed in HEK 293T cells (alpaca); experiment: co-IP; LUMIER assay: lysates of co-transfected HEK 293T cells; HA-tagged VHH captured on plates coated with anti-HA.11, 4°C, 3 h; 50 mM Hepes pH 7.9, 150 mM NaCl, 2 mM EDTA, 0.5% Triton X-100, 5% glycerol; co-precipitated Renilla luciferase activity normalised to input
T1 sequence (VHH): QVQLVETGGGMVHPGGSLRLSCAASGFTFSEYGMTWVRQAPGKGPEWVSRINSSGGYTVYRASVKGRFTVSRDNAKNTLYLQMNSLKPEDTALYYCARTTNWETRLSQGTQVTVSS

[2] = target: T2, recombinant murine ASC as an eGFP fusion (mouse) (UniProt Q9EPB4); experiment: ELISA; recombinant eGFP-mASC or eGFP alone coated at 1 µg/ml; HA-tagged VHHs at 100 nM; detected with anti-HA-HRP and TMB, absorbance at 450 nm; both purified
T2 sequence: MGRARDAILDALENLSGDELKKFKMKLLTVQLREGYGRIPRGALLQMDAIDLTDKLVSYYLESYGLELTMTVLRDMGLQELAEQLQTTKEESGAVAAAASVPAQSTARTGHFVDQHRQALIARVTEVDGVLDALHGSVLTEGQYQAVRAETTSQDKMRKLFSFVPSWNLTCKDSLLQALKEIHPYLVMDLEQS

binding [1]: no binding
Molecule: human ASC fused to Renilla luciferase (from UniProt Q9ULZ3 1-195)

binding [2]: binds
B1: recombinant HA-tagged VHH_(mASC) (JT-01-A09) (VHH)
VHH: T1 sequence (VHH)

binding [1]: binds
B2: pyrin domain of mouse ASC fused to Renilla luciferase (domain or fragment, UniProt Q9EPB4 1-91)
chain: MGRARDAILDALENLSGDELKKFKMKLLTVQLREGYGRIPRGALLQMDAIDLTDKLVSYYLESYGLELTMTVLRDMGLQELAEQLQTTKEE

binding [1]: no binding
B3: CARD of mouse ASC fused to Renilla luciferase (domain or fragment, UniProt Q9EPB4 105-193)
chain: STARTGHFVDQHRQALIARVTEVDGVLDALHGSVLTEGQYQAVRAETTSQDKMRKLFSFVPSWNLTCKDSLLQALKEIHPYLVMDLEQS
